Library screening results

Protein sequences, listed by entry. Tags and fused reporters are not part of them.
UniProt E9BF75, entry or part of it: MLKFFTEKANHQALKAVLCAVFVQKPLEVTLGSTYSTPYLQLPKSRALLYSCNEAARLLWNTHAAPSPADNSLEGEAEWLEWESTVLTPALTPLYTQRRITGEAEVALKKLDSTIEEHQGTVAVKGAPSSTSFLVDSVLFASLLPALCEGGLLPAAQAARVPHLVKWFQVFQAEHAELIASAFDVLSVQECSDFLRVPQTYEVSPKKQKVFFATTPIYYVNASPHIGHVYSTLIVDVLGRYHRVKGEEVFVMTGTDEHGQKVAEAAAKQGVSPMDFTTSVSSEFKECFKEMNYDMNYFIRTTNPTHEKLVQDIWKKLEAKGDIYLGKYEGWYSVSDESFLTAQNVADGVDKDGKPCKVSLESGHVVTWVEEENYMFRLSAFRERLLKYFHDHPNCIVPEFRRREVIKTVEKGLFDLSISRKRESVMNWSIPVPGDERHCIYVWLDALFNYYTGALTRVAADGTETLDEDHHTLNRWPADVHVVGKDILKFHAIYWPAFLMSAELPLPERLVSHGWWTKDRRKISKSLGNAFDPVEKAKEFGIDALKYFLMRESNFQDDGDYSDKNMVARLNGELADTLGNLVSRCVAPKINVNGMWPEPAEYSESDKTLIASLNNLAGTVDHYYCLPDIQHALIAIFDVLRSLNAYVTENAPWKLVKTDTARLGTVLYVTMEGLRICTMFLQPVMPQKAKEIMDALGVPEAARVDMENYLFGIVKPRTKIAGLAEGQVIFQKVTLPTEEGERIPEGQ

Results are percentages, as filed. The controls that fix the scale are not given in the record; negative values are as filed. This is an unselected part of the compounds tested. A dash means the value is not listed here; it may have been measured.

Mtb heat-shock: 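Assay on Mycobacterium tuberculosis, filed only as a heat shock assay from Cornell; the read-out is not stated. The concentration is filed as 10 mM, unlikely as a test dose, so the dose is not known. The record gives no direction; compounds that gave an IC50 in retests scored well above the rest, so higher reads as stronger inhibition. About 69,000 compounds were tested under these conditions; 1.4% (about 930) showed 50% or more at least once.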
LdMetRS: 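Primary screen of methionyl-tRNA synthetase; the read-out is not stated. Target: Methionyl-tRNA synthetase (putative), Leishmania donovani (UniProt E9BF75). The test concentration is not given. The values are filed as inhibition. About 68,000 compounds were tested under these conditions; 0.035% (about 24) showed 50% or more at least once.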
Mtb growth Cornell: 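Whole-cell assay for inhibitors of Mycobacterium tuberculosis growth, labelled Cornell in the record; the read-out is not stated. The concentration is filed as 10 mM, unlikely as a test dose, so the dose is not known. Higher means stronger inhibition (inferred from two other growth screens of the library). Size under these conditions: about 53,000 compounds, about 900 of them at 50% or above in at least one test.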

| compound | Mtb heat-shock | LdMetRS | Mtb growth Cornell |
|---|---|---|---|
| `CNc1nc(CNC(=O)Nc2cccc(-c3nnco3)c2)cs1` | 26.97 | 10.48 | 9.544 |
| `O=C(NCc1ccc(-n2cncn2)nc1)c1cc(Cl)ccn1` | 10.05 | 6.349 | -14.75 |
| `Cn1ccc(C(=O)NC2CCC23CCN(Cc2ccc(F)cc2)CC3)c1.O=C(O)C(F)(F)F` (centres undefined) | -3.271 | - | 23.31 |
| `OCCN(Cc1ccncc1)CC1(c2ccc(Cl)cc2)CC1` | - | 13.83 | - |
| `Cc1cc(NCC2CCCO2)cc(=O)n1C` (centres undefined) | -11.3 | 5.135 | -7.316 |
| `c1ccc(CCCC2CN(Cc3ncc[nH]3)CCO2)cc1` (centres undefined) | -12.46 | 15.4 | - |
| `CCC(C(=O)Nc1ccc2nc(C)oc2c1)N1CCCC1=O` (centres undefined) | -4.445 | 5.758 | -18.53 |
| `CCOCC1CN(Cc2cccnc2)Cc2nn(C)cc21` (centres undefined) | - | 8.497 | - |
| `COc1c(C2CCCN2Cc2noc(C(C)C)n2)c(C)nn1C` (centres undefined) | -16.98 | 4.298 | -29.79 |
| `Cc1cc(C)cc(NCCC(=O)NC2CCCCC2)c1` | 12.41 | 7.551 | -2.663 |
| `O=C(O)C(F)(F)F.[H][C@@]12CCN(CC3CC3)C[C@]1([H])[C@H](C(=O)NCc1ccco1)CCO2` | -19.27 | - | 11.26 |
| `COc1ccccc1OCCCc1cncc(C(N)=O)c1` | -16.94 | 1.718 | -0.7517 |
| `Cc1ccnn1CCC(=O)N1CCCC[C@@]2(C)[C@@H]1CCC(=O)N2C` | - | 18.1 | - |
| `Cc1cncc(C(=O)N2CCC3(CCCN(c4nncs4)C3)C2)c1` (centres undefined) | - | 14.57 | - |
| `Cc1ncc(CN2CCCC2)c2cc(C(=O)c3ccc(Br)cc3)oc12` | - | 20.33 | - |
| `O=C(NCc1ccco1)[C@@H]1CCO[C@@H]2CCN(c3ncccn3)C[C@H]21` | - | 6.667 | - |
| `Cc1nc(C2CCCN(C(=O)c3ccoc3)C2)no1` (centres undefined) | -17.5 | 16.39 | - |
| `CCn1cc(NC(=O)C2CCN(Cc3noc(C(C)C)n3)CC2)cn1` | -5.581 | 22.92 | - |
| `CCc1nc(C2CCCN2C(=O)c2ccc3c(c2)nnn3CC)no1` (centres undefined) | -2.272 | 9.79 | - |
| `Cn1cc(CNC2CCc3c(ccc(=O)n3Cc3cccnc3)C2)cn1.O=C(O)C(F)(F)F.O=C(O)C(F)(F)F` (centres undefined) | 12.8 | - | -8.554 |
| `Cc1ccc(CN2CCC[C@@H]3CN(C(=O)c4ccco4)C[C@@H]32)s1` | - | 5.229 | - |
| `CC(O)CN1CCN(C(=O)c2cccc(CC#N)c2)CC1` (centres undefined) | -9.801 | 4.453 | -17.46 |
| `O=C(O)C(F)(F)F.O=C(c1ccccn1)N1CCn2cnc(COCC3CC3)c2C1` | 3.692 | - | 25.15 |
| `O=C(Cc1cnc(-n2cccc2)s1)NCCCO` | 4.17 | 14.73 | 1.233 |
| `CN(CCC#N)C(=O)C(C)(C)Oc1ccc(C(N)=O)cc1` | 5.02 | 7.5 | -45.48 |
| `Cc1csc(CNc2ccc(-c3nc(C4CC4)no3)cn2)n1` | 8.695 | 19.23 | 22.1 |
| `CC(C)N(C)Cc1n[nH]c2c1CCN(C(=O)c1ccc[nH]1)C2.O=C(O)C(F)(F)F` | -18.49 | - | -20.42 |
| `COCC(=O)N1C[C@@H](OCc2cccnc2)[C@H]2OCCC[C@@H]21` | - | 11.11 | - |
| `CN1CC2(CCN(CCOCCO)CC2)CC(c2ccccc2)C1=O` (centres undefined) | -13.61 | 9.971 | -3.376 |
| `Cc1cc(C(=O)N2CCCC(C)C2)ccc1NCC(=O)N1CCOCC1` (centres undefined) | -18.06 | 21.59 | - |
| `CC(C)CC(=O)Nc1ccc(Oc2ccsc2C(=O)O)cc1` | 13.9 | 15.09 | 38.91 |
| `Cc1ccc(CN2CCC3(C2)C(=O)N(CC(N)=O)c2ccccc23)s1` (centres undefined) | -35.1 | 2.793 | 3.211 |
| `Cc1ccccc1N1CCN(C(=O)c2ncc(F)cc2F)C(C)C1` (centres undefined) | 14.52 | 7.143 | - |
| `CCc1ncnc2c1CCN(Cc1ccc3c(c1)OCO3)CC2` | - | 17.79 | - |
| `Cn1cc(CNCC2(O)CCCN(Cc3ccc(F)c(F)c3)C2=O)cn1` (centres undefined) | -3.613 | 16.08 | -6.647 |
| `CCCNCc1ccc(OCc2ccc3c(c2)OCCO3)cc1.Cl` | 21.13 | - | 33.03 |
| `Cc1cc(C(=O)NC(COCC(C)C)c2ccco2)no1` (centres undefined) | -7.516 | 3.988 | - |
| `CSc1ccc(CN(C(=O)c2cc(=O)[nH]c(=O)[nH]2)C2CC2)cc1` | -7.512 | 0.2457 | -2.967 |
| `Cc1cc(OCC(=O)N2CCCC2c2noc(C)n2)no1` (centres undefined) | -21.52 | 11.27 | -40.96 |
| `COc1cccc(S(=O)(=O)N2CCn3cnc(COCC4CC4)c3C2)c1` | 8.341 | 11.3 | 20.28 |
| `Cc1nc(N(C)C)nc(-c2cccc(-c3ccn(CCCF)n3)c2)c1C` | 6.08 | 14.11 | 23.84 |
| `O=C(Cc1cccs1)NCC1Cn2nnc(-c3ccoc3)c2CO1` (centres undefined) | -4.335 | 10.51 | 6.289 |
| `CCNC(=O)C1CCN(c2cc(CC)nc3ccnn23)C1` (centres undefined) | -25.6 | 7.949 | 0.4755 |
| `CN(C)C(=O)CO[C@H]1CO[C@@]2(CCN(Cc3ccsc3)C2)C1.O=C(O)C(F)(F)F` | 12.97 | - | -13.14 |

Repeated from the top, 5 entries:

{"compound": "CNc1nc(CNC(=O)Nc2cccc(-c3nnco3)c2)cs1", "Mtb heat-shock": 26.97, "LdMetRS": 10.48, "Mtb growth Cornell": 9.544}
{"compound": "O=C(NCc1ccc(-n2cncn2)nc1)c1cc(Cl)ccn1", "Mtb heat-shock": 10.05, "LdMetRS": 6.349, "Mtb growth Cornell": -14.75}
{"compound": "Cn1ccc(C(=O)NC2CCC23CCN(Cc2ccc(F)cc2)CC3)c1.O=C(O)C(F)(F)F", "stereo": "centres undefined", "Mtb heat-shock": -3.271, "Mtb growth Cornell": 23.31}
{"compound": "OCCN(Cc1ccncc1)CC1(c2ccc(Cl)cc2)CC1", "LdMetRS": 13.83}
{"compound": "Cc1cc(NCC2CCCO2)cc(=O)n1C", "stereo": "centres undefined", "Mtb heat-shock": -11.3, "LdMetRS": 5.135, "Mtb growth Cornell": -7.316}

Data taken from ChEMBL document CHEMBL3988442, “University of Dundee, Small-Polar-MMV Screening Library” (2021).